In US10377647B2, “Systems and methods for use of water with switchable ionic strength” (Queen's University at Kingson, priority 2010, dated 2019):
Some entries share one result that the patent states for a list of compounds.

Assay: Degree of protonation by CO2 in D2O by 1H NMR
Assay type: physicochemical
Description: The spectrum was then acquired.
This process was repeated.

Substance: N,N-(dimethylamino)ethanol [DMAE]
- time of CO2 bubbling to full protonation: ≤ 20 min
